We go through two molecules from article PMC9166763.

The chains behind the UniProt entries cited, without tags or fusion partners. Residues count along the entry.
UniProt P20029, residues 20-655: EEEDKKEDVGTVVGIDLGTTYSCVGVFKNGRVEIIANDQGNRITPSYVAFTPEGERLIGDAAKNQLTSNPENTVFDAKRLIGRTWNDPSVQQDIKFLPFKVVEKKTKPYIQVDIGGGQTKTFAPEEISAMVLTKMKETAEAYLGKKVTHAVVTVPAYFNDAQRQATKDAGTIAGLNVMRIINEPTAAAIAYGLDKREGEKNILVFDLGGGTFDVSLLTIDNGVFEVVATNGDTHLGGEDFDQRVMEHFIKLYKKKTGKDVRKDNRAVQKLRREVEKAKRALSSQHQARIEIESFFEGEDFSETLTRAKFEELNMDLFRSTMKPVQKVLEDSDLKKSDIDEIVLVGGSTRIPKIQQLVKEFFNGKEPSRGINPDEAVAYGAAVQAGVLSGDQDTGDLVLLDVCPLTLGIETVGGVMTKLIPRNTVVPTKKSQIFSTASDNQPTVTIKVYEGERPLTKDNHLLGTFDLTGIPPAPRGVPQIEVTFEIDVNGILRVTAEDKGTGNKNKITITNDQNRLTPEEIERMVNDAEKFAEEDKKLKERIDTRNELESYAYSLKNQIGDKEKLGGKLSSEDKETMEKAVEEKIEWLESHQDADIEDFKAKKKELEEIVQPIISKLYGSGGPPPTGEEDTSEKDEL

Results are given in words; binding and its absence hold for the method and conditions named. Binding seen in cells or lysates may run through a third protein. Some binding calls cover weakened binding; strength is not graded here.

Assay [1] deals with T1, Caspase 7, mouse, endogenous (mouse (endogenous in kidney and primary RTECs)) (UniProt P97864).
T1 sequence: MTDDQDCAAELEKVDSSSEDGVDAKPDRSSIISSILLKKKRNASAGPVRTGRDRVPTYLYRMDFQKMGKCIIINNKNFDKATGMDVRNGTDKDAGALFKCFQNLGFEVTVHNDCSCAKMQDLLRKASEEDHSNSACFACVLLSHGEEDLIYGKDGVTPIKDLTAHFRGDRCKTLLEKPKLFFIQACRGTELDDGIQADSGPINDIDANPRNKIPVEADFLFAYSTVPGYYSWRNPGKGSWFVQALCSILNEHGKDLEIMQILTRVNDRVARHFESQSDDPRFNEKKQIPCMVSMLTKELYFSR
In words: co-IP; lysate of HG-induced RTECs after transfection of DcR2 siRNA or DcR2 overexpression plasmid; endogenous GRP78 and caspase 7, reciprocal; western blot. (In western blotting, separated proteins are transferred to a membrane and probed.)

Assay [2] addresses T1, Caspase 7, mouse, endogenous (mouse (endogenous in kidney and primary RTECs)). In words: co-IP; renal tissue of STZ-DN mice lysed in IP lysis buffer; antibody on protein A or G magnetic beads, lysate overnight at 4 °C; western blot; endogenous proteins, reciprocal.
In assay [3] the target is Glucose-related protein 78 kDa (GRP78), mouse, endogenous (mouse (endogenous in kidney and primary RTECs)) (UniProt P20029). In words: co-IP; lysate of HG-induced RTECs after transfection of DcR2 siRNA or DcR2 overexpression plasmid; endogenous GRP78 and caspase 7, reciprocal; western blot.
Assay [4] has the same target. In words: co-IP; renal tissue of STZ-DN mice lysed in IP lysis buffer; antibody on protein A or G magnetic beads, lysate overnight at 4 °C; western blot; endogenous proteins, reciprocal.

On to “Glucose-related protein 78 kDa (GRP78), mouse, endogenous (from UniProt P20029 20-655)”, for which the binding entry in assay [1] and in assay [2] was “binds” each time.

B1: Caspase 7, mouse, endogenous (enzyme, UniProt P97864 1-303)
chain: MTDDQDCAAELEKVDSSSEDGVDAKPDRSSIISSILLKKKRNASAGPVRTGRDRVPTYLYRMDFQKMGKCIIINNKNFDKATGMDVRNGTDKDAGALFKCFQNLGFEVTVHNDCSCAKMQDLLRKASEEDHSNSACFACVLLSHGEEDLIYGKDGVTPIKDLTAHFRGDRCKTLLEKPKLFFIQACRGTELDDGIQADSGPINDIDANPRNKIPVEADFLFAYSTVPGYYSWRNPGKGSWFVQALCSILNEHGKDLEIMQILTRVNDRVARHFESQSDDPRFNEKKQIPCMVSMLTKELYFSR
With B1, the binding entry in assay [3] and in assay [4] was “binds” in each case.
